Experimental data: PubChem BioAssay AID1259261 (Sanger Institute, 2017)
The deposit covers 794 reagents; shown is a part drawn at random. 10 of them (1.3%) were called active. 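Calls reflect knock-down alone without drug; synergy scores with BYL719, cetuximab or trametinib do not affect calls.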 Further read-outs or replicates are left out here. Not stated in the record: the amount of reagent, the time to read-out.

- Aim: 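siRNA screen across the kinome for kinases that are essential and partners synergising with drugs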 (primary screen)
- Cells: HCC2998 human colorectal cancer cells
- Reagent: siRNA pool against human genes
- Treatment: anchor drugs BYL719 1 µM, cetuximab 5 µg/ml or trametinib 10 nM, each compared with DMSO vehicle
- Read-out: 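Cell viability relative to non-targeting siRNA, averaged over replicates, with robust z-score for siRNA alone and synergy scores with each anchor drug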
- Direction: viability z-score, knock-down alone: higher = more viable cells than controls
- Active means: 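a knock-down is called essential if its robust z-score without drug is under -3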
- Calls: active = essential; inactive = no change

Which result is listed for PAK2?
viability z-score, knock-down alone: -0.32; call: inactive

With CDKL2, what does the deposit list?
viability z-score, knock-down alone: 0.405; call: inactive

Which result is listed for SGK2?
viability z-score, knock-down alone: 0.0836; call: inactive

How did the screen score PINK1?
viability z-score, knock-down alone: 0.34; call: inactive

What did the screen give for MYH10?
viability z-score, knock-down alone: 0.362; call: inactive

For MAP3K5, what was measured?
viability z-score, knock-down alone: 1.21; call: inactive

What is on record for TGFBR3?
viability z-score, knock-down alone: 1.21; call: inactive

For PIKFYVE, what was measured?
viability z-score, knock-down alone: -0.164; call: inactive

With AK2, what was measured?
viability z-score, knock-down alone: 0.709; call: inactive

For STK33, what was measured?
viability z-score, knock-down alone: 0.332; call: inactive

With TWF2, how do the results read?
viability z-score, knock-down alone: -0.114; call: inactive

How did the screen score UCK2?
viability z-score, knock-down alone: 1.05; call: inactive

Which result is listed for PIP4K2A?
viability z-score, knock-down alone: 0.885; call: inactive

Which result is listed for ZAP70?
viability z-score, knock-down alone: -1.5; call: inactive

With CKM, how do the results read?
viability z-score, knock-down alone: 0.809; call: inactive

What did the screen give for MAP3K8?
viability z-score, knock-down alone: -1.77; call: inactive

With KSR2, how do the results read?
viability z-score, knock-down alone: -1.03; call: inactive

What is on record for PFKL?
viability z-score, knock-down alone: 1.21; call: inactive

How did the screen score PTPRU?
viability z-score, knock-down alone: -0.144; call: inactive

What is on record for AURKB?
viability z-score, knock-down alone: 0.388; call: inactive

What did the screen give for RPS6KA6?
viability z-score, knock-down alone: 1.19; call: inactive

What did the screen give for PRKAG3?
viability z-score, knock-down alone: -0.624; call: inactive

For ERBB4, what was measured?
viability z-score, knock-down alone: 0.145; call: inactive

With PSKH2, how do the results read?
viability z-score, knock-down alone: 0.0191; call: inactive

With SPHK1, what does the deposit list?
viability z-score, knock-down alone: -0.512; call: inactive

What did the screen give for TRPM6?
viability z-score, knock-down alone: 1.21; call: inactive

What is on record for CDC73?
viability z-score, knock-down alone: -1.97; call: inactive

With HIPK2, what was measured?
viability z-score, knock-down alone: -0.55; call: inactive
